Laboratory results from publication PMC7862700.
The entries are a selection whose mix differs from that of the whole data set. At the low end of the ranking the order means little.

Biological target: T1, FEV (UniProt Q99581)
T1 sequence: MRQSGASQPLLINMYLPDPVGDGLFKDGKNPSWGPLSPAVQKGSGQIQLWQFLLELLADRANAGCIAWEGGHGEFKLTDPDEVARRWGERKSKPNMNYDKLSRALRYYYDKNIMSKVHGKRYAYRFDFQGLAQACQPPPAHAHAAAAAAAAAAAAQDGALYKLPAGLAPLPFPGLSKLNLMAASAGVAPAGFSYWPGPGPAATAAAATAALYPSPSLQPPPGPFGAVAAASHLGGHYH
Assay: DAPPL (digital affinity profiling via proximity ligation, sequencing)
Settings: 10 mM Tris-HCl pH 7.5, 50 mM NaCl, 1 mM DTT, 4% glycerol, room temperature, 30 min; GST-TFs on glutathione beads, 16-mer random dsDNA library, 0.1% …; high values mean tight binding; double strand, one strand shown; scale: fold enrichment (6-mer frequency, TF over GST control)

Sequence	binding signal
TTTCTT	1.23
ATAGCT	1.16
TGACTC	1.36
CTTTTG	1.3
TAAAAT	1.14
ATACTA	1.13
ATCTAC	1.33
GGCTCC	1.35
TTAGCG	0.959
TTCATA	1.12
CCCGCA	1.26
GTAAAA	1.07
AATAAC	1.25
TTTAAA	1.25
ATTTGA	1.17
TATTTC	2.32
GCCTTT	1.41
ATTATT	1.15
TGGAAA	1.03
CACTTC	5.06

Sequence	binding signal
TAACAT	1.32
ACTGCT	1.48
TAATGT	0.998
AATCCC	1.41
ACTCTA	1.45
AAAACA	1.34
ACACTT	1.68
CCTATG	1.17
AATCGC	1.08
TATCTC	1.27
TTTCCT	2.34
AAAAGG	1.06
AGCTAC	1.23
CTTGCA	1.3
GTTTAA	1.11
TACTCT	1.33
CTGATA	1.14
TCACGA	1.05
TATTCA	1.28
CTAAAG	1.29
